Values quoted from earlier work, collected in patent US20160279207A1, “TARGETING GDF6 AND BMP SIGNALING FOR ANTI-MELANOMA THERAPY” (University of Massachusetts, priority 2015, published 2016).
For at least one compound, name, drawing or mass did not settle the structure.

Test system: melanomas
Details: melanoma patients; cited from earlier work

For `CCCS(=O)(=O)Nc1ccc(F)c(C(=O)c2c[nH]c3ncc(-c4ccc(Cl)cc4)cc23)c1F` [vemurafenib], the survival benefit is given as 3-6 month.
